Article PMC4513104
These are yes or no findings as the source states them, for the method shown. A result given as binding can be weak or reduced; the word gives no strength.

By UniProt entry, the sequences of proteins in these tests, tags left out. Where a name states a change or a piece, a line headed by the entry shows the natural chain unless it says otherwise.
UniProt P15090: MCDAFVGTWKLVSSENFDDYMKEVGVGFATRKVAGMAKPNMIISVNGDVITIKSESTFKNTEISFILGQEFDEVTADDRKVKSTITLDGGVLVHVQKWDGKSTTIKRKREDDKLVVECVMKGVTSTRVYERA
UniProt Q9DBL9: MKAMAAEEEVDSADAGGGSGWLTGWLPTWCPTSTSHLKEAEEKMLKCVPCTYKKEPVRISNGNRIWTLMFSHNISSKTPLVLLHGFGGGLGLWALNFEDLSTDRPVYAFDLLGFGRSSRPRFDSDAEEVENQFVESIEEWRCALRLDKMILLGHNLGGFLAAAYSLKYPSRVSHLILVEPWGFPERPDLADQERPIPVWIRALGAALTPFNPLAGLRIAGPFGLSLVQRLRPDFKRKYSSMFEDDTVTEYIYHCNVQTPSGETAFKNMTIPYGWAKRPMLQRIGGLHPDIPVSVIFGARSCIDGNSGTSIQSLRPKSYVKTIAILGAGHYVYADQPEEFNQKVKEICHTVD

Biological target: A-Fabp^D18K (human) (UniProt P15090)
Test: ELISA; solid phase assay: 96-well polystyrene plates coated overnight with 3 μg of purified Fabp, blocked with 5% delipidated BSA in TBS (50 mM Tris, pH 8.0, 150 mM NaCl); COS-7 cell extracts (10–60 μg of total protein) with His-tagged proteins, 2% BSA, 0.05% Tween 20, overnight; anti-His primary and Hrp-conjugated secondary antibody, absorbance 450/620 nm; only the target purified

binding: binds
Substance: His-tagged murine Cgi-58 (from UniProt Q9DBL9 1-351)
